In patent US20230330051A1, “METHOD FOR MODULATING WEIGHT” (Yeda Research and Development Co. Ltd., priority 2020, published 2023):

How the values were obtained:
[1] = Serum metabolomic profiling of smoking and non-smoking mice with or without antibiotics (linear mixed model); assay type: in vivo; settings: serum metabolite level in smoking vs non-smoking mice
[2] = Metabolic cage analysis of DMG- or PBS-supplemented mice; assay type: in vivo, C57BL/6J male mice; settings: DMG- vs PBS-supplemented mice, metabolic cages, 172 hours
[3] = Targeted mass spectrometry of serum metabolites in mice; assay type: in vivo; settings: targeted MS, smoking vs non-smoking and antibiotics-treated smoking mice

Row | Compound | SMK/NS direction [1] | Serum levels in smoking mice [3] | other results
1 | CCCCC/C=C\C/C=C\C/C=C\CCCCC(=O)O[C@H](COC(=O)CCCCCCCCCCCCCCC)COP(=O)([O-])OCC[N+](C)(C)C [1-palmitoyl-2-gamma-linolenoyl-GPC (16:0/18:3n6)] | Decreased |  | 
2 | CN(C)CC(=O)O [DMG, N,N-Dimethylglycine] | Increased | higher | Energy expenditure [2]: comparable; Locomotion activity [2]: comparable; RER [2]: comparable; Total caloric uptake [2]: comparable
3 | CCCCCC(=O)NCC(=O)O [Hexanoylglycine] | Decreased |  | 
4 | C[N+](C)(C)CC(=O)O [betaine] |  | higher | 
5 | hexadecadienoate (16:2n6) | Decreased |  | 
